In PMC4207660, “Identification and Characterization of Hundreds of Potent and Selective Inhibitors of Trypanosoma brucei Growth from a Kinase-Targeted Library Screening Campaign” (PLoS Neglected Tropical Diseases, 2014):

Assay: Composite Score (multi-factorial prioritization of hits)
Conditions: Figures 7-9 (in parentheses) and text; maximal score 16
For `CN(C)Cc1ccc(-c2cc3c(-c4cnn(C)c4)ccnc3[nH]2)cc1` [NEU-0001200], the composite score was 13. For `Cn1cc(-c2cnc3[nH]cc(-c4cccc(C#N)c4)c3c2)cn1` [NEU-0001207], the composite score was 13. Molecule `OCCn1c(CNCCCNc2nc3ccccc3[nH]2)cc2c(Cl)cc(Cl)cc21` [NEU-0001053] has a composite score of 12.

Same assay, conditions: Table S2; maximal score 16
With `Cc1cccc(Nc2nc(OCCN)ncc2C(N)=O)c1` [NEU-0001103] the “Score (Composite Score)” value was 6. In the case of `CN[C@@H]1C[C@H]2O[C@@](C)([C@@H]1OC)n1c3ccccc3c3c4c(c5c6ccccc6n2c5c31)C(=O)NC4` [NEU-0001095], the “Score (Composite Score)” value was 9. In the case of `O=C(Nc1ccncc1)c1ccc([N+](=O)[O-])o1` [NEU-0001094], the “Score (Composite Score)” value was 9. With `CCCCn1nc(C)c2c(=O)[nH]c(-c3cccc(N)c3)nc21` [NEU-0001099] the “Score (Composite Score)” value was 8. For `O=c1nc(-c2ccccc2)c2cc(-c3ccncc3)ccc2[nH]1` [NEU-0001101], the “Score (Composite Score)” value was 6. With `CCn1nccc1NC(=O)c1ncnc2ccc(-c3cccc(S(C)(=O)=O)c3)cc12` [NEU-0001104] the “Score (Composite Score)” value was 6. In the case of `CS(=O)(=O)Nc1ccc(-c2c(-c3cccnc3)oc3ncnc(N)c23)cc1` [NEU-0001100], the “Score (Composite Score)” value was 7. For `Clc1ccc(C2c3ccccc3Cc3nncn32)cc1` (stereo not drawn) [NEU-0001097], the “Score (Composite Score)” value was 8. For `C(=C\c1c(-c2ccccc2)nc2sccn12)/c1ccn[nH]1` [NEU-0001096], the “Score (Composite Score)” value was 8. In the case of `O=c1[nH]c(=O)n(CC2CCCCC2)c2nc(N3CCOCC3)sc12` [NEU-0001098], the “Score (Composite Score)” value was 8. With `CC[C@@H]1COCCN1c1cc(-c2cc(OC)c3c(N)n[nH]c3c2)nc(N)n1` [NEU-0001102] the “Score (Composite Score)” value was 6. For `OCCn1c(CNCCCNc2nc3ccccc3[nH]2)cc2c(Cl)cc(Cl)cc21` [NEU-0001053], the “Score (Composite Score)” value was 12.
